Data published in the M2OR odorant receptor database.
Changes are numbered by the printed parent chain. This is a selection; strong and weak results do not stand in their true shares. The calls were merged from several studies; some rest on single wells. The list shows a part of the results. Some of the results follow.

Chains of the proteins cited; added tags and fusions are not shown. A line that says so, or that is headed by a name, gives the form on record, which may keep a tag or linker.
OR2W1, as listed by the source: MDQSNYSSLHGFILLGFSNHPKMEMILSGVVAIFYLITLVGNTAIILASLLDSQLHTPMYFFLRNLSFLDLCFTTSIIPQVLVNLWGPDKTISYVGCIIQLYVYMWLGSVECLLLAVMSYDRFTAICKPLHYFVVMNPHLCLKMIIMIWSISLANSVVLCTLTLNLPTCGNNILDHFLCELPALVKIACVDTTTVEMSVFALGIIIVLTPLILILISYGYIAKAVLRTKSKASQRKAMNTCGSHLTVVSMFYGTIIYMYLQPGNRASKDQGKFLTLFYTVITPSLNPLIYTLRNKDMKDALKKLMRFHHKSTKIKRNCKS

Columns and labels:
Conditions in all cases: stereoisomer not certain
OR2W1 [1] = system: T1, OR2W1
T1 sequence (whole entry): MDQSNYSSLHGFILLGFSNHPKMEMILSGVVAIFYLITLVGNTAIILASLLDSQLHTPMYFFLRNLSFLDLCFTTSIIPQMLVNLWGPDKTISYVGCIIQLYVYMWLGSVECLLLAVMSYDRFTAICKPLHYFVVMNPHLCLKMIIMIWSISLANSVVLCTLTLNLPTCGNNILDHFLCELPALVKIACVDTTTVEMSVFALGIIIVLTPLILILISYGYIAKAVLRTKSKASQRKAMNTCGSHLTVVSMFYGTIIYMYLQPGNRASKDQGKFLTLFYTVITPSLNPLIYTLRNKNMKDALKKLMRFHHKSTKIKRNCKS
Procedure, shortened: (§1)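 Assay methods differ from source to source, frequently being transient luciferase assays in mammalian cell lines. For each receptor–molecule pair, the label responsive (active) applies when the original authors judged the measured signal statistically different from baseline, and non-responsive (inactive) applies otherwise.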

OR2W3 (Homo sapiens) = target: T2, OR2W3 (Homo sapiens) (UniProt Q7Z3T1)
T2 sequence (whole entry): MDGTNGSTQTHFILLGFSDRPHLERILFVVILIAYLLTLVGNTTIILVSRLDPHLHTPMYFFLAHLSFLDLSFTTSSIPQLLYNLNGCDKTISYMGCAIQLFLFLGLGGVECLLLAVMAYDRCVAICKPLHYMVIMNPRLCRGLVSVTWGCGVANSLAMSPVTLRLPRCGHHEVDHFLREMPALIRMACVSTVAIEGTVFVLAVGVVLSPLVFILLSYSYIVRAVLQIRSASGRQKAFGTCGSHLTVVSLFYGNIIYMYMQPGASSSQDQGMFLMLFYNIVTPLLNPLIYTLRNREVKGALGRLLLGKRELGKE
Procedure, shortened: as §1

OR2W3 = system: T3, OR2W3
T3 sequence (whole entry): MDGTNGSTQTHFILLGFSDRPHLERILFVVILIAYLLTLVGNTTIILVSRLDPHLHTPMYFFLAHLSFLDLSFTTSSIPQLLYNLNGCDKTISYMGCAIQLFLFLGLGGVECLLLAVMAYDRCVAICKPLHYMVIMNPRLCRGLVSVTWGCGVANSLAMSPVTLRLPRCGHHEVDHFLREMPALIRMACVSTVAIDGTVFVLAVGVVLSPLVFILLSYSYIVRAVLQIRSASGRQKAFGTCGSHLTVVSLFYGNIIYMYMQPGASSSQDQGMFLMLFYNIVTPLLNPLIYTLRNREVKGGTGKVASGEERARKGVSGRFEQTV
Procedure, shortened: as §1

OR2W5P (Homo sapiens) = target: T4, OR2W5P (Homo sapiens) (UniProt A6NFC9)
T4 sequence (whole entry): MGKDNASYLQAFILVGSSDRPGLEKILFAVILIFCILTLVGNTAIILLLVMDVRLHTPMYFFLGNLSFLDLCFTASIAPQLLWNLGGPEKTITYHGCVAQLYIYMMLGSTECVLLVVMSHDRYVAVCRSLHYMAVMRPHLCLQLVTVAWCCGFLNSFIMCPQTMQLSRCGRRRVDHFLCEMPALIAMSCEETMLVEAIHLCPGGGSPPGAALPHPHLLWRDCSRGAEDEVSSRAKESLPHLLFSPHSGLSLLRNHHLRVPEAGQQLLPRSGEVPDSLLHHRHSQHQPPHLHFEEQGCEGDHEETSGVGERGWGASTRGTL
Procedure, shortened: as §1

OR2Y1 = system: T5, OR2Y1
T5 sequence (whole entry): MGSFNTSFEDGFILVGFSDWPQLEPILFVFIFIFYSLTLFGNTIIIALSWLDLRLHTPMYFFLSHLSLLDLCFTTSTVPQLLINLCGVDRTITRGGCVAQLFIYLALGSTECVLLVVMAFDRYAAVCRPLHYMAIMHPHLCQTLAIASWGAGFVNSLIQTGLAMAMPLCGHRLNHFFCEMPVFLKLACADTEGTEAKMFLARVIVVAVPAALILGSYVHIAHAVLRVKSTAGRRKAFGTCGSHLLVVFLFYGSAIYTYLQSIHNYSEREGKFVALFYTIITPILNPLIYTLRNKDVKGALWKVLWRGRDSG
Procedure, shortened: as §1

OR2Z1 (Homo sapiens) = target: T6, OR2Z1 (Homo sapiens) (UniProt Q8NG97)
T6 sequence (whole entry): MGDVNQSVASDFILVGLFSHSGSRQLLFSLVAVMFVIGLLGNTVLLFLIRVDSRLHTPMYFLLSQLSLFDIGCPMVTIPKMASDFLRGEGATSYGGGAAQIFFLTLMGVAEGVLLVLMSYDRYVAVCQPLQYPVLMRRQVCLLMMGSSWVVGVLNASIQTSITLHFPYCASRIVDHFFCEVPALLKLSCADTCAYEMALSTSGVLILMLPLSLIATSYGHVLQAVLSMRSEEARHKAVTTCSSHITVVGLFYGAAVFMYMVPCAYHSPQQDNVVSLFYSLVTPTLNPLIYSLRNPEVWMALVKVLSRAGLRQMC
Procedure, shortened: as §1

OR3A1 (Homo sapiens) = target: T7, OR3A1 (Homo sapiens) (UniProt P47881)
T7 sequence (whole entry): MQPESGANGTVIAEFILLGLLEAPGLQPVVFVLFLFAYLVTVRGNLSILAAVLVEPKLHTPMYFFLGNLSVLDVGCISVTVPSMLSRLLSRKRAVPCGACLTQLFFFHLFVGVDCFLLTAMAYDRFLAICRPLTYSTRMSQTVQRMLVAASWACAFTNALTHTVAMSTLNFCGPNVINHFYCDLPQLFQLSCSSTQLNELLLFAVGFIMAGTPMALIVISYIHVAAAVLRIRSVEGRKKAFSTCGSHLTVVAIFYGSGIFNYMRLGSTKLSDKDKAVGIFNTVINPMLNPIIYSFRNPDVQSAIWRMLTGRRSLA
Procedure, shortened: as §1

OR3A2 (Homo sapiens) = target: T8, OR3A2 (Homo sapiens) (UniProt P47893)
T8 sequence (whole entry): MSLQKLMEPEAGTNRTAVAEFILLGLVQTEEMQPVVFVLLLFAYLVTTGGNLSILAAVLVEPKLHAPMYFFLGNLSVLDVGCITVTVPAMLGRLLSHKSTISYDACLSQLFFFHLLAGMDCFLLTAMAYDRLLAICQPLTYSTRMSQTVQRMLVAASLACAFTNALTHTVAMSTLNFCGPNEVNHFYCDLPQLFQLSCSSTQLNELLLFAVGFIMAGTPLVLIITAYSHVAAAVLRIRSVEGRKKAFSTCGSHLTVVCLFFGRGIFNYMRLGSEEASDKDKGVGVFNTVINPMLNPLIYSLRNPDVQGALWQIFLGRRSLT
Procedure, shortened: as §1

OR3A3 = system: T9, OR3A3
T9 sequence (whole entry): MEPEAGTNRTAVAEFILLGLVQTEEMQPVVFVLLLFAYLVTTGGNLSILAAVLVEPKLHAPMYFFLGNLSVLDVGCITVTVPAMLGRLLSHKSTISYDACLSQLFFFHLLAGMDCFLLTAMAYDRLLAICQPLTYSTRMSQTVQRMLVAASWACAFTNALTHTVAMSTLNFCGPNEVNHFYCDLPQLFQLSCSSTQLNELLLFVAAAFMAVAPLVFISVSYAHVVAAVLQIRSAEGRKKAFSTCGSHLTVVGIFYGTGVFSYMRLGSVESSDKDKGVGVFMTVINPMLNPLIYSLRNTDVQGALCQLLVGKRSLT
Procedure, shortened: as §1

OR3A4 = system: T10, OR3A4
T10 sequence (whole entry): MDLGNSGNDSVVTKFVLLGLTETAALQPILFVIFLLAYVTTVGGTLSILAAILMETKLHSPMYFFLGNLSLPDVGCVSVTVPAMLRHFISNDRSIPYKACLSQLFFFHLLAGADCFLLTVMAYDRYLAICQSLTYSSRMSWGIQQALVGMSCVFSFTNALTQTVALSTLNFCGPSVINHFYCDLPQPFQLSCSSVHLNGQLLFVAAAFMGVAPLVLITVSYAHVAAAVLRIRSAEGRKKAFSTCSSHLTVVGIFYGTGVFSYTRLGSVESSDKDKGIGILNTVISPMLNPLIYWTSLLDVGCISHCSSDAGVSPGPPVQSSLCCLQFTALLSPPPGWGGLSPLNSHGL
Procedure, shortened: as §1

OR4A16 (Homo sapiens) = target: T11, OR4A16 (Homo sapiens) (UniProt Q8NH70)
T11 sequence (whole entry): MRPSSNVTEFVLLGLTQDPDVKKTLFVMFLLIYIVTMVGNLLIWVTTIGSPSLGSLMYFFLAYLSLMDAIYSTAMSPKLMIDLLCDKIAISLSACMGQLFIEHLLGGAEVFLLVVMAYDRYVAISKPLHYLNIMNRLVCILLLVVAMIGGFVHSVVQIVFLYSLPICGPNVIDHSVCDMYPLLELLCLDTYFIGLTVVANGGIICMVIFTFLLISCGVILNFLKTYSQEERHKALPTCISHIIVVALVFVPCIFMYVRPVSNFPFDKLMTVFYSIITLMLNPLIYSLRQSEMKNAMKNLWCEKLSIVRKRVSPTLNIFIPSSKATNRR
Procedure, shortened: as §1

OR4A4P (Homo sapiens) = target: T12, OR4A4P (Homo sapiens) (UniProt Q8NGN8)
T12 sequence (whole entry): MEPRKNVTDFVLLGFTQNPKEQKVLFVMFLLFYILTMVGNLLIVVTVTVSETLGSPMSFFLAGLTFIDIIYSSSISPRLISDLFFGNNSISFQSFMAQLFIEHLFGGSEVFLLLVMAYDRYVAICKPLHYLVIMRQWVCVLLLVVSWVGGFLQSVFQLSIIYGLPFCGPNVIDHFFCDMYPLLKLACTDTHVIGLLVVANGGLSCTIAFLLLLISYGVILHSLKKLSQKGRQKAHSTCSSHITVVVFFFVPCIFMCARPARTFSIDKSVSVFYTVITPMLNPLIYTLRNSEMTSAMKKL
Procedure, shortened: as §1

OR4A5 (Homo sapiens) = target: T13, OR4A5 (Homo sapiens) (UniProt Q8NH83)
T13 sequence (whole entry): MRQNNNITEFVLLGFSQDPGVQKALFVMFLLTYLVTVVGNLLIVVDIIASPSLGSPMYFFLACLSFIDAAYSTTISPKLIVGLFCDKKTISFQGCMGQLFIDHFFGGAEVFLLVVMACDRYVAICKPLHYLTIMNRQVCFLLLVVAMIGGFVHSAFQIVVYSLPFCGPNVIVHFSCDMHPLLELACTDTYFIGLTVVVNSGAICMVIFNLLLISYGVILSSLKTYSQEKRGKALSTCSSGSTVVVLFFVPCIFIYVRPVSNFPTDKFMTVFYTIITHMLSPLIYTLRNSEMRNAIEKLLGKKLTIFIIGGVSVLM
Procedure, shortened: as §1

OR4A5 = system: T14, OR4A5
T14 sequence (whole entry): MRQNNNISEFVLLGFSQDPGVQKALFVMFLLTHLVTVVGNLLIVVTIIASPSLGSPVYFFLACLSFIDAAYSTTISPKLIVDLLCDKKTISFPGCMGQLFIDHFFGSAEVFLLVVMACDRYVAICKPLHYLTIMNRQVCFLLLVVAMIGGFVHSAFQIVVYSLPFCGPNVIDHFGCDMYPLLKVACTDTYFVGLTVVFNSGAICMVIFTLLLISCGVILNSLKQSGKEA
Procedure, shortened: as §1

OR4B1 (Homo sapiens) = target: T15, OR4B1 (Homo sapiens) (UniProt Q8NGF8)
T15 sequence (whole entry): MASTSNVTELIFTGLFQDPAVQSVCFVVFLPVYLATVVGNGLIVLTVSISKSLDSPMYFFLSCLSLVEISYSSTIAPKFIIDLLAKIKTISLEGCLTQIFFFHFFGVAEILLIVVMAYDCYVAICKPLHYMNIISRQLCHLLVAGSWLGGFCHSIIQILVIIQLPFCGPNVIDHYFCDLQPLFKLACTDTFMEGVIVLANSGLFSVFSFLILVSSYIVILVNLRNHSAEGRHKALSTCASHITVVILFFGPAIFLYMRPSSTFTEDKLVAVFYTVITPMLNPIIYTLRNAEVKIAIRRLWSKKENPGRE
Procedure, shortened: as §1

OR4C11 (Homo sapiens) = target: T16, OR4C11 (Homo sapiens) (UniProt Q6IEV9)
T16 sequence (whole entry): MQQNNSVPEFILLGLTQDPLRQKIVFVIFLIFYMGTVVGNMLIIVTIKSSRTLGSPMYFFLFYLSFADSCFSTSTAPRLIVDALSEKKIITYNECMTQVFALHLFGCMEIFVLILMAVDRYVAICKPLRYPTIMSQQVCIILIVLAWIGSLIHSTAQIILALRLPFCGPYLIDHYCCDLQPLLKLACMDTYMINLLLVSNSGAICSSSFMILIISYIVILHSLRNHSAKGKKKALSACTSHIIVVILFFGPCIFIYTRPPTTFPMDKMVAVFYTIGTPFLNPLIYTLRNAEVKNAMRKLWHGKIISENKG
Procedure, shortened: as §1

OR2W1 [2] = system: T17, OR2W1; remark: listed apart in the source
T17 sequence (whole entry): T1 sequence (whole entry) with M81V, N296D
Procedure, shortened: as §1

Measured: odorant receptor agonist call

CCCCCC(=O)O
active: OR2W3 (Homo sapiens)
not listed: OR2W1 [2]
inactive: all other assays above

CCC=CCCO
active: OR2W1 [1] | OR2W1 [2]
not listed: OR2W3 (Homo sapiens)
inactive: all other assays above
